Test results taken from article doi:10.1101/2021.03.19.436211 (bioRxiv, 2021).
These are yes or no findings as the source states them, for the method shown. In cells and extracts the contact can be indirect. Some binding calls cover weakened binding; strength is not graded here. Tags and fused reporters may be left off the sequences shown.

Legend:
Assay in all cases: co-IP
[1] = biological target: T1, wild-type lipin 1-V5 (full-length mouse lipin 1α with C-terminal V5-His tag) (mouse) (UniProt Q91ZP3)
T1 sequence: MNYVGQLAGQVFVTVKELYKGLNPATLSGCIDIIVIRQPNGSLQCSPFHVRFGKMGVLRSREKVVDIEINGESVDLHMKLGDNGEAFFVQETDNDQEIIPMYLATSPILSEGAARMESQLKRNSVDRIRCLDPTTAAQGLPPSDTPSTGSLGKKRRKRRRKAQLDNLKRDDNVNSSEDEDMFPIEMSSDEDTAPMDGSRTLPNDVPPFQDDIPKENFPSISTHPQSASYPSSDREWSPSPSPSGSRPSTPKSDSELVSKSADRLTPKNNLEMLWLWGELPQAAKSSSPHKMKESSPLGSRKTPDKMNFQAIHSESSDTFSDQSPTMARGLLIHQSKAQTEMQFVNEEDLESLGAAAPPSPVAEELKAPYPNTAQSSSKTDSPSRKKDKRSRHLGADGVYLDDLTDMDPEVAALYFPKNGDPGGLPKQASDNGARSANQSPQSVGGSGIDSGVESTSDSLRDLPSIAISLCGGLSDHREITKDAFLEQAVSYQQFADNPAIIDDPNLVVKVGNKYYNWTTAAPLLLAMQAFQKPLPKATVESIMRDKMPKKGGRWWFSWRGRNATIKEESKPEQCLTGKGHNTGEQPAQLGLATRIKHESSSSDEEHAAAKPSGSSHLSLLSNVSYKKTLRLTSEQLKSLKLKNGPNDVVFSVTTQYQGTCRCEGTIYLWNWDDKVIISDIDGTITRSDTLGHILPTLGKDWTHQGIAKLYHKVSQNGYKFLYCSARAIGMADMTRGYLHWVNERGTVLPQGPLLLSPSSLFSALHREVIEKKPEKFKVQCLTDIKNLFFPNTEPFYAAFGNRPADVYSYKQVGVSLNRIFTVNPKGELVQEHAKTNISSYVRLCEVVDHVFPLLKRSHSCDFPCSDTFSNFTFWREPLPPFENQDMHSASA

[2] = biological target: T2, ΔM-Lip^xtal-V5 (mouse lipin 1α Δ458-548 with C-terminal V5-His tag) (mouse) (UniProt Q91ZP3)
T2 sequence: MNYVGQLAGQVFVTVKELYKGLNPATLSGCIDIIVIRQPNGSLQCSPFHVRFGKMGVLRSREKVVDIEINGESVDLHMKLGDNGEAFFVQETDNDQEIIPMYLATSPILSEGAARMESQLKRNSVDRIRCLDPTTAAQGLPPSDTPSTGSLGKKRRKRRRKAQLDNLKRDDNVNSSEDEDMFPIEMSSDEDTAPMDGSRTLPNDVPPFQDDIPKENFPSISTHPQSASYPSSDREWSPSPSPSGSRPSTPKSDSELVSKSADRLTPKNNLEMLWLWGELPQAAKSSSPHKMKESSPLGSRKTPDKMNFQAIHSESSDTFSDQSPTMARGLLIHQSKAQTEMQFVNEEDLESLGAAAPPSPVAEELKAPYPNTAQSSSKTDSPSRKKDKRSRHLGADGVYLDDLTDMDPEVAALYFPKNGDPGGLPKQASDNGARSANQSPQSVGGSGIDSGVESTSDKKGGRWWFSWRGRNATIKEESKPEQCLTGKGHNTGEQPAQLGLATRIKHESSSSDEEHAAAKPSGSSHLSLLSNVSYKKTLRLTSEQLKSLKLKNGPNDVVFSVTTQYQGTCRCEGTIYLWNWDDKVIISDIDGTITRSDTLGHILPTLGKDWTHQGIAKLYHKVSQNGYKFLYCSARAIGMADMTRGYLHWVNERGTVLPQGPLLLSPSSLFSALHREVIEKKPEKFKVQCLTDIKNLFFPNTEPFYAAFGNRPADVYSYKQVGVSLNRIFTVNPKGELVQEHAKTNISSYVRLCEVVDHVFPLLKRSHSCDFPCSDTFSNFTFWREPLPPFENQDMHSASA

[3] = biological target: T3, ΔMLip-V5 (mouse lipin 1α Δ458-565 with C-terminal V5-His tag) (mouse) (UniProt Q91ZP3)
T3 sequence: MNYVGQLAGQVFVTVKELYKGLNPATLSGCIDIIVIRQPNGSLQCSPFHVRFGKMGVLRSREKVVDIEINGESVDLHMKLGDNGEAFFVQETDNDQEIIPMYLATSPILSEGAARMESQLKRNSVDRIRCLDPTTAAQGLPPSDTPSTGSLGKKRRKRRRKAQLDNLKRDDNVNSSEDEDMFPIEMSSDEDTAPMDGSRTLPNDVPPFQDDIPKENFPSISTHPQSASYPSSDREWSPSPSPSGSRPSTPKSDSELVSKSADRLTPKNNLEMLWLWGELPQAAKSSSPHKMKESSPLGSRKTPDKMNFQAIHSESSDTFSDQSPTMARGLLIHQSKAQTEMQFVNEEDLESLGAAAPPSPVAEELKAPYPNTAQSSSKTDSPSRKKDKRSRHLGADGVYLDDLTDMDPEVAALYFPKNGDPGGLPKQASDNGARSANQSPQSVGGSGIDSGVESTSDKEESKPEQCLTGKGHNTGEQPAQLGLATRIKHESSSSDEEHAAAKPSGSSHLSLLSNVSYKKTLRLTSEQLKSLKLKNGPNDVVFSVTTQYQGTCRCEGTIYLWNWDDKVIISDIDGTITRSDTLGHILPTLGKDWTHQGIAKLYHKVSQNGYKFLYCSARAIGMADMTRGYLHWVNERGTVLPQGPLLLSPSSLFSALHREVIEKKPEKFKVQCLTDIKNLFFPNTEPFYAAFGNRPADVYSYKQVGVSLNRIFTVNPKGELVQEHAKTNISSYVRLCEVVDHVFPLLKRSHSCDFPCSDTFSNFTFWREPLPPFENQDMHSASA

Measured: binding

B1: lipin 2-BirA*-HA (enzyme, UniProt Q99PI5 1-893)
chain: MNYVGQLAGQVLVTVKELYKGINQATLSGCIDVVVVRQQDGSYQCSPFHVRFGKLGVLRSKEKVIDIEINGSAVDLHMKLGDNGEAFFVEETEEEYEKLPAYLATSPIPTEDQFFKHIETPLVKSSGNERPAQSSDVSHTLESEAVFTQSSVKKKKRRRKKCKQDNRKEEQAASPVAEDVGDVGVSSDDEKRAQAARGSSNASLKEEDYKEPSLFHSGDNYPLSDGDWSPLETTYPQAVCPKSDSELEVKPSESLLRSEPHMEWTWGGFPESTKVTKRERYDYHPRTATITPSENTHFRVIPSEDSLIREVEKDATVEDTTCTIVKPKPRALCKQLSDAASTELPESPLEAPQISSLLDADPVPSPSAEAPSEPKPAAKDSPTKKKGVHKRSQHQGPDDIYLDDLKALEPEVAALYFPKSDTDPGSRQWPESDTFSGSQSPQSVGSAAADSGTECLSDSAMDLPDVTLSLCGGLSENGEISKEKFMEHIITYHEFAENPGLIDNPNLVIRIYNRYYNWALAAPMILSLQVFQKSLPKATVESWVKDKMPKKSGRWWFWRKKESMIKQLPETKEGKSEVPPANDLPSNAEEPTSARPAENDTSSDEGSQELEESIKVDPITVETLSHCGTASYKKSLRLSSDQIAKLKLHDGPNDVVFSITTQYQGTCRCAGTIYLWNWNDKVIISDIDGTITKSDALGQILPQLGKDWTHQGIARLYHSINENGYKFLYCSARAIGMADMTRGYLHWVNDKGTILPRGPLMLSPSSLFSAFHREVIEKKPEKFKIECLNDIKNLFAPSRQPFYAAFGNRPNDVYAYTQVGVPDCRIFTVNPKGELIQERTKGNKSSYHRLSELVEHVFPLLSKEQNSAFPCPEFSSFCYWRDPIPDLDLDDLA
binds: all assays above

B2: lipin 3-BirA*-HA (enzyme, UniProt Q99PI4 1-848)
chain: MNYVGQLAETVFGTVKELYRGLNPATLSGGIDVLVVRQRDGSFRCSPFHVRFGKLGVLRSREKVVDIEINGEPVDLHMKLGDSGEAFFVQELDSDEEDVPPRLCTSPIPWGGLSGFPSDSQIGTASEPEGLVITGRRKRRRRRKPRRREEDAVDSSSEELEAGAESELTLLEKPTPESPSAQEAEEPSSQPKDIHPYSDGECTPQANLSSGDLMSPKSDSELELRSLEPSPLRAESHMQWVWGRLPKVAKAERPEFSLILESMAEAICALPEEPSPSSSPSEAGVDTLSPPVLHPGVRADTFHPAVEAHCEETAVDSPLAAPESKETKTQNSRGAGHPPATKSWSWTTPESHTPSGHPQVSRGKGSLKRNQHLGPSDIYLDDLPSLDSENVALYFPKSEYGMGARRWSEPSNQKLLESPNPEHIAECTLDSVDKIELSLCGGLADNRDISLEKFTQHMVSYEDLTKNPGLLDDPNLVVKINEKHYNWAVAAPMILSLQAFQKNLPESTVDKLEKEKMPRKGGRWWFSWRRRDFPAEEHSSQREKAATRKQQGEKTEVLSSDDDVPDSPVILEVPPLPSSTPGYVPTYKKSLRLSSDQIRCLNLNEGANDVVFSVTTQYQGTCRCKATIYLWNWDDKVVISDIDGTITKSDALGHILPQLGKDWTHQGITSLYHKIHLNGYKFLYCSARAIGMADLTKGYLQWVSEHGCGLPKGPILLSPSSLFSALHREVIEKKPEVFKVACLSDIQQLFLPQRQPFHAAFGNRPNDVFAYRQVGLPESRIFTVNPRGELIQELIKSHKSTYQRLGEVVELLFPPVVRGPSTDLASPEYSNLSYWRKPLPYVDFEALA
binds: all assays above
